Assay results from the supplement of paper PMC6411743.
± gives the standard deviation of the averaged measurements. The list shows a part of the results, in another mix than the full data.

Amino acid sequences for entries named in this document (tags omitted). A change or cut given only in a name is not applied to a line headed by its entry.
UniProt Q6P2P2: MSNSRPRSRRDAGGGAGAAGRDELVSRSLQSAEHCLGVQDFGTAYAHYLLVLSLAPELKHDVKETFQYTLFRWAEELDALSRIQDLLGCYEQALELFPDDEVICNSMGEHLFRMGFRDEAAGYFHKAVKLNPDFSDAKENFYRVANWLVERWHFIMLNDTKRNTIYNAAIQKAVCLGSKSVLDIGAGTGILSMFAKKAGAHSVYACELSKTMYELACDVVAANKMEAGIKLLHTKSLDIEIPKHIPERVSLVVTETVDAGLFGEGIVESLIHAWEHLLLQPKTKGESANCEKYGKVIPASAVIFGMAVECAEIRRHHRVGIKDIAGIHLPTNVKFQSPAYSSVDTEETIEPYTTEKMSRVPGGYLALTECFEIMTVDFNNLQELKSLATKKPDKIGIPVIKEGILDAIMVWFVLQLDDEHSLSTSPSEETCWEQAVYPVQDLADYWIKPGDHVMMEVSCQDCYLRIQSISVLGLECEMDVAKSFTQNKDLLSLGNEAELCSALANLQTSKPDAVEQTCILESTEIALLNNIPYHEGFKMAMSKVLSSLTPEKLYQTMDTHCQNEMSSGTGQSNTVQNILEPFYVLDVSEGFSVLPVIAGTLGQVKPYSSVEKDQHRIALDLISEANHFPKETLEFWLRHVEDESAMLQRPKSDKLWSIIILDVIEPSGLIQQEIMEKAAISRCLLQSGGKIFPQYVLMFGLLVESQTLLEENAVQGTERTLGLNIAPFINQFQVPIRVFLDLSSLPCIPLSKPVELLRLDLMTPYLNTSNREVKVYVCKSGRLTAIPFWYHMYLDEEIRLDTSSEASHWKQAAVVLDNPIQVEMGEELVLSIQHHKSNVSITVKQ
UniProt Q5RI15: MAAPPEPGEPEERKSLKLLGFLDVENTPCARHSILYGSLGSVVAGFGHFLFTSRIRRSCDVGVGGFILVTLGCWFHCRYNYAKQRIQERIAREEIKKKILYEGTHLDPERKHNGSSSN
UniProt Q5VZF2: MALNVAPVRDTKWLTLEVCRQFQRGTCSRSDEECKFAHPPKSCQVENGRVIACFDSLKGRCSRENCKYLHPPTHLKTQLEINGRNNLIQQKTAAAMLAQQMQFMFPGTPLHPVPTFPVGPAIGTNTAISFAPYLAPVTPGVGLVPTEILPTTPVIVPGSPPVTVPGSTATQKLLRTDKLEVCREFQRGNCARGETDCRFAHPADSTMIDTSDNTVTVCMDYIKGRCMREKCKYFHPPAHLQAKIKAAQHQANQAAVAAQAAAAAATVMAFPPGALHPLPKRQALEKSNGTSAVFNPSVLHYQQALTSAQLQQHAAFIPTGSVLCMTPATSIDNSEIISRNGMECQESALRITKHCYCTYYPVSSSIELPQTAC
UniProt Q9NSU2: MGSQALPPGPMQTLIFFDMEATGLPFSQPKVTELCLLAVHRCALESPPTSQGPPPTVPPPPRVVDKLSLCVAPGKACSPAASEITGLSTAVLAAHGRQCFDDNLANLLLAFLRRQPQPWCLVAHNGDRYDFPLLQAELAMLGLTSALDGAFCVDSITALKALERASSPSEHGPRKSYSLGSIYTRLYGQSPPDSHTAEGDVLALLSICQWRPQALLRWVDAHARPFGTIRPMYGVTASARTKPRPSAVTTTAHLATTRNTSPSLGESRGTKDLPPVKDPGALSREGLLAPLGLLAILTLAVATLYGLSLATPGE
UniProt Q6IQ32: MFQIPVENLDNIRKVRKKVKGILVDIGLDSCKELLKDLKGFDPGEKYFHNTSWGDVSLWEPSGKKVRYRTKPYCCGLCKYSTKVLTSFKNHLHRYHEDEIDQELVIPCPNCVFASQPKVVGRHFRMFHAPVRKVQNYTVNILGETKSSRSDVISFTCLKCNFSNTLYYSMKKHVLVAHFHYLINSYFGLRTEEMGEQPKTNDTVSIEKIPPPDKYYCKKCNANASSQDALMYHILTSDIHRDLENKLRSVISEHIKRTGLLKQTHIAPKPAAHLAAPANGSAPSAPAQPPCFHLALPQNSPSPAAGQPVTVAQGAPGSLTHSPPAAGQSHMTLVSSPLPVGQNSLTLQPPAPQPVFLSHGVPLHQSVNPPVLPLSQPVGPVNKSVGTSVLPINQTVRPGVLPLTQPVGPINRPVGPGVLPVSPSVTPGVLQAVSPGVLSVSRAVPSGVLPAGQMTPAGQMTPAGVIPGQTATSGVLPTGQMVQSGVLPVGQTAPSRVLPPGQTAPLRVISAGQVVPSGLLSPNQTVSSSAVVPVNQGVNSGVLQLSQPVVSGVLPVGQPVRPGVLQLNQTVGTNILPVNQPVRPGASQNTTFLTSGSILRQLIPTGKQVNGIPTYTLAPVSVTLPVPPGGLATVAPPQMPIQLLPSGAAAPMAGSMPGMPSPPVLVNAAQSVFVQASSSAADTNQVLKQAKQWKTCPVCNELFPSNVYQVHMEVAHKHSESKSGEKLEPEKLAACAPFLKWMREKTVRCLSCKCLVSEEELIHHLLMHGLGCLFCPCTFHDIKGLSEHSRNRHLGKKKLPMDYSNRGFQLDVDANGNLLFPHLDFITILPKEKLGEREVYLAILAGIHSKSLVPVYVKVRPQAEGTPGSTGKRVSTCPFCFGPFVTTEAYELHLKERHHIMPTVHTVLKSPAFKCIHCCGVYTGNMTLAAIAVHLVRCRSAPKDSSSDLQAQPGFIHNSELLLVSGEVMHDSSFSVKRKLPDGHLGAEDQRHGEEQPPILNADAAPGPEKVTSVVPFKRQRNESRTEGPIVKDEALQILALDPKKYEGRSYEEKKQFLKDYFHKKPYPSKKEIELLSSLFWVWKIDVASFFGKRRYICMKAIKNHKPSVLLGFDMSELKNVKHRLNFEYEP
UniProt Q5JRX3: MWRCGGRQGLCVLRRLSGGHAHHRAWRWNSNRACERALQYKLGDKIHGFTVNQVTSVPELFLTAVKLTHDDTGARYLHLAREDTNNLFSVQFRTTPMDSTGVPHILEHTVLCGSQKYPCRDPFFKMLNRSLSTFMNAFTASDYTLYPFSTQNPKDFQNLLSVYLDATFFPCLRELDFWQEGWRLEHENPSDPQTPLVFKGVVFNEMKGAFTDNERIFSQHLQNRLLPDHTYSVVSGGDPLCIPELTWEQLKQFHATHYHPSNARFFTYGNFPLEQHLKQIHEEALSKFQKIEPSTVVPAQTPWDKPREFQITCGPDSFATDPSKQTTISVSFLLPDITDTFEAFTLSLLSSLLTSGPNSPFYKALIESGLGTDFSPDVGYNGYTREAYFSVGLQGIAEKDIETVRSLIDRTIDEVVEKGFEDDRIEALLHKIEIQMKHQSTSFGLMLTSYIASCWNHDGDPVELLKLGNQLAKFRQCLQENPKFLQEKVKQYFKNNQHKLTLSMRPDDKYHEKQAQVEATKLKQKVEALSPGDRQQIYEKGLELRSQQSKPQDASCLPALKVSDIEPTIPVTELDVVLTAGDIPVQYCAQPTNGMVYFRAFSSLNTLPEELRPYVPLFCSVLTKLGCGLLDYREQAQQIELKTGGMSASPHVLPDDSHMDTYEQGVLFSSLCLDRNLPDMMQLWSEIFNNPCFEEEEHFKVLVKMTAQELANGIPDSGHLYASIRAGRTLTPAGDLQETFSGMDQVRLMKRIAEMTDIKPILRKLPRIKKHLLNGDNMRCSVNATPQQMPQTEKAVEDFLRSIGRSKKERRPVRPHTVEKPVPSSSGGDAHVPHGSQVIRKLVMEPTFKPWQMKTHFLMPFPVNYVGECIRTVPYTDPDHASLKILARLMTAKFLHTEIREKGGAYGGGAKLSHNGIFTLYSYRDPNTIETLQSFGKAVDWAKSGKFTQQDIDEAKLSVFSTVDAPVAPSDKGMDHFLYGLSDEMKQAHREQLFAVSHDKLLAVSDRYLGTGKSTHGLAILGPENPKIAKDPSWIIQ
UniProt Q5BKY9: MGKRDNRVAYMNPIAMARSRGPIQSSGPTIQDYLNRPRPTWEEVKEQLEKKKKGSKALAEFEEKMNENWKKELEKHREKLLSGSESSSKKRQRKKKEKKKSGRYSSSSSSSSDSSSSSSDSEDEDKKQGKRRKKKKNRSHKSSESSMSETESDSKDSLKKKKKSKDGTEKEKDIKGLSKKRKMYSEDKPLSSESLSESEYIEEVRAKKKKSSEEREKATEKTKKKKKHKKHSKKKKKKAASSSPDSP
UniProt Q5W0V3: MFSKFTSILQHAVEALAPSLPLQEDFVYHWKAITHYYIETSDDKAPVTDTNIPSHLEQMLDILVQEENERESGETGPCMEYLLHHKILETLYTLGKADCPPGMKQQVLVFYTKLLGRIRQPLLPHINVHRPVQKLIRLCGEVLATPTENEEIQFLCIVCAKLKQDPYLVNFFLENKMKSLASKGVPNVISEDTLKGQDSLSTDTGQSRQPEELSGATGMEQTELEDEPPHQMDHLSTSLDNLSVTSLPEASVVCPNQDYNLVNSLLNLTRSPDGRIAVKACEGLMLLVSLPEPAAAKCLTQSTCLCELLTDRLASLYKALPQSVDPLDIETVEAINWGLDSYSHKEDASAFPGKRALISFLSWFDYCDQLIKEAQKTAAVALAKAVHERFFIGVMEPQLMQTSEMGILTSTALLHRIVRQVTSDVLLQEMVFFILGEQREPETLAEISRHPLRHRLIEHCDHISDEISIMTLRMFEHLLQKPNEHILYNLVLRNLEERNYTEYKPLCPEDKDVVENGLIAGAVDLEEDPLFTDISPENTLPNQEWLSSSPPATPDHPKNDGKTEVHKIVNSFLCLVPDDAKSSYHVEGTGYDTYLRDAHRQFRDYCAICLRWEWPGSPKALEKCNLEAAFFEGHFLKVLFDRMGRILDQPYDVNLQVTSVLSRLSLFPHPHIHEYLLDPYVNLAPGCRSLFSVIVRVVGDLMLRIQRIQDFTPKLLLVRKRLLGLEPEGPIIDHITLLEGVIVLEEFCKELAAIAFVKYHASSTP
UniProt Q4KMQ2: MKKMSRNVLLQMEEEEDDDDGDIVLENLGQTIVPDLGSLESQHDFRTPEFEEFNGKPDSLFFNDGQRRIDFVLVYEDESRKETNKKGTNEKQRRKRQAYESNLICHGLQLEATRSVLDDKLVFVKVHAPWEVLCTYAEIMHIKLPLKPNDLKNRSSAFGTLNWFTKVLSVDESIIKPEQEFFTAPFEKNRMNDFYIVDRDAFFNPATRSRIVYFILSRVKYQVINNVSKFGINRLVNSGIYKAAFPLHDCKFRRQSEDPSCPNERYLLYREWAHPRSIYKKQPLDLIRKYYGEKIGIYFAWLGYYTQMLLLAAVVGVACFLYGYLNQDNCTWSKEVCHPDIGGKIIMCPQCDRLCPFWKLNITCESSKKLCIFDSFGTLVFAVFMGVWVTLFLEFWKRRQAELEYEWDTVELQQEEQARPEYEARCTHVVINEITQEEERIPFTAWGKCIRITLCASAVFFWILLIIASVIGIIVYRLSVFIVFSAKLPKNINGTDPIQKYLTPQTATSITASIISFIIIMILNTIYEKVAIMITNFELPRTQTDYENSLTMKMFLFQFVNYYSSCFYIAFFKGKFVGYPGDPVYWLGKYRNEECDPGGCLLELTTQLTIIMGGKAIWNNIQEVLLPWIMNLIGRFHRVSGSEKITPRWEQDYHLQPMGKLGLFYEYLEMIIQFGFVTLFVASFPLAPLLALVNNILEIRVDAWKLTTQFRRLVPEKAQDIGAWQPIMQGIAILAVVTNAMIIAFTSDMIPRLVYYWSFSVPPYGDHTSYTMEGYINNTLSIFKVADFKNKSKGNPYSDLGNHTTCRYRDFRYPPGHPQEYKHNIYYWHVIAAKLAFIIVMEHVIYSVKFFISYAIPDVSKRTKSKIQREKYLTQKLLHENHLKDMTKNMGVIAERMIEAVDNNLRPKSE

Each target was assayed with Nc1ncnc2c1ncn2[C@@H]1O[C@H](COP(=O)(O)OP(=O)(O)OP(=O)(O)O)[C@@H](O)[C@H]1O [adenosine triphosphate] (assay: NP40-soluble protein abundance relative to vehicle (solubility fold change) (ratio); higher = more soluble protein in presence of ATP). Conditions: concentration: 10mM.
How it was run: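 Eight concentrations, 0.1 to 10 mM, were tested on Jurkat crude lysate for 10 min at room temperature and then 3 min at 37 °C, in three independent experiments. The lysate was solubilised with 0.8% NP40 and benzonase, ultracentrifuged, and the supernatant TMT-labelled for LC-MS/MS. Each value is the fold change against the detergent-processed vehicle in its own replicate, from vsn-normalised intensities.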

UniProt Q6P2P2 and UniProt Q5RI15 and related entries are within error of each other in NP40-soluble protein abundance: 0.997 ± 0.075 for the first, 0.9581 ± 0.0094 for the second.

Going from “Q5JSC0 and related entries (UniProt Q5VZF2)” to ARID2 (UniProt Q68CP9), the NP40-soluble protein abundance rises from 0.957 ± 0.041 to 1.38 ± 0.074.

TTC27 (UniProt Q6P3X3) and “Q5TZT0 and related entries (UniProt Q9NSU2)” are within error of each other in NP40-soluble protein abundance: 0.98 ± 0.051 for the first, 0.909 ± 0.053 for the second.

First: ADNP2 (UniProt Q6IQ32)
Second: PITRM1 (UniProt Q5JRX3)
The NP40-soluble protein abundance of the first is higher: 1.24 ± 0.026 for the first, 0.972 ± 0.059 for the second.

UniProt Q5BKY9 and related entries and FAM160B1 (UniProt Q5W0V3) are within error of each other in NP40-soluble protein abundance: 0.982 ± 0.12 for the first, 0.974 ± 0.013 for the second.

First: UniProt Q6F5E8 and related entries
Second: UniProt Q4KMQ2 and related entries
The NP40-soluble protein abundance of the first is higher: 1.23 ± 0.11 for the first, 0.97 ± 0.059 for the second.

INTS5 (UniProt Q6P9B9) showed an NP40-soluble protein abundance of 1.29 ± 0.15.
